For some of these results: Strings that start with PEPTIDE1 are HELM notation: dots part the residues, brackets hold end groups and non-standard residues.
Legend:
[1] = general procedure: Fmoc solid-phase peptide synthesis; HMPB-BHA resin; HBTU/HOBt/diisopropylethylamine; conditions: whole synthesis
[2] = general procedure: Fmoc solid-phase peptide synthesis; Fmoc-Glu(Ot-Bu)-Wang resin (0.9 mmol/g); 1,6-diaminohexane trityl resin ([…]); HBTU/HOBt/diisopropylethylamine; conditions: for final HPLC purity / purity (crude or final not stated): HPLC

## Ac-PLG-Ahp-Y(O-tBu)L-OH
[1]
  isolated yield: 77%
  final HPLC purity: 100%

## Ac-PL-NLys(Boc)-LL-OH
[1]
  isolated yield: 63%
  final HPLC purity: 100%

## Ac-P-Cit-Hse˜Hphe-SA-Ahxh-Hynic
[2]
  final HPLC purity: 100%

## Ac-PLG˜L-Pya-L-Ahxh-Ac
[2]
  purity (crude or final not stated): 100%

## Ac-P-Cha-G˜LL-Ahxh-H
[2]; whole synthesis
  purity (crude or final not stated): 100%

## Ac-LRY˜Cha-TA-Ahxh-Hynic
[2]
  final HPLC purity: 100%

## Ac-P-O(Me)2-G˜Hphe-L-Nle-Ahxh-Hynic
[2]
  final HPLC purity: 100%

## Ac-P-Cit-G˜Hphe-LA-Ahxh-Hynic
[2]
  final HPLC purity: 100%

## Ac-P-Cit-G˜Hphe-Cha-A-Ahxh-H
[2]; whole synthesis
  purity (crude or final not stated): 100%

## PEPTIDE1{[HynN].[Ahx].P.L.G.[Hphe].[Orn].L.E.E}$$$$V2.0
[2]; whole synthesis
  final HPLC purity: HPLC purity 100%
[2]; whole synthesis, overall
  isolated yield: overall yield 7.5%

## Ac-P-Cit-G˜Hphe-OL-Ahxh-Ac
[2]
  purity (crude or final not stated): 100%

## PEPTIDE1{[ac].P.[Orn].G.[Hphe].L.[Ambh].[HynCz]}$$$$V2.0
[2]; late stage modification step
  step yield: 71%
  final HPLC purity: HPLC purity, 100%

## (2S)-N-[(1S)-1-(N-{(1S)-1-[N-(6-Aminohexanoylamino)carbamoyl]-3-methylbutyl}carbamoyl)-2-[4-(tert-butoxy)phenyl]ethyl]-2-(2-{(2S)-2-[((2S)-1-acetylpyrrolidin-2-yl)carbonylamino]-4-methylpentanoylamino}-acetylamino)hept-6-enamide
[2]; late stage modification step
  step yield: 63%
  final HPLC purity: 100%

## Ac-POG˜Hphe-L-Nle-Ahxh-Hynic
[2]
  final HPLC purity: 100%

## Ac-P-Cit-G˜Hphe-LT-Ahxh-Hynic
[2]
  final HPLC purity: 98%

## Ac-PL-NLys(Boc)˜Ahp-Y(t-Bu)L-Ahxh-H
[2]; whole synthesis
  purity (crude or final not stated): 95%

## Piv-PLG˜LYT-Ahxh-Hynic
[2]
  final HPLC purity: 93.4%

## Ac-PLG˜Ahp-O(Boc)L-Ahxh-H
[2]; whole synthesis
  purity (crude or final not stated): 100%

## Ac-PLG˜Pabu-Cit-L-Ahxh-Ac
[2]
  purity (crude or final not stated): 100%

## Ac-P-Cha-G˜Smc-HA-Ahxh-Hynic
[2]
  final HPLC purity: 96%

Reference: patent US20050106100A1 (priority 2003, published 2005)
